± gives the standard deviation of the averaged measurements. The reference is the same well before dosing, and untreated signal decays as well.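 Fibroblast labels denote human fibroblasts, mainly primary ones from uterus (C12385, HUF), lung (H6013), bone (Hs27A), adrenal (HADF) and skin (WS1), plus mammary HMF and breast cancer-associated Hs343T. Cancer cells are basal-like or mesenchymal-like triple-negative breast cancer lines. A hit is a response shift exceeding 3x replicate standard deviation. The tissue of the other fibroblasts is not given here.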
System: MDAMB468
Test: relative JC-1 red fluorescence (viability) vs pre-drug, coculture with fibroblast (fraction); higher = more viable cancer cells
Method: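 JC-1 labelled TNBC cells cocultured 1:1 (1,500 cells each) with CellTrace Violet stained primary or stromal fibroblasts in 384-well plates in FluoroBrite medium, treated with one of 42 anticancer drugs at 0.1, 1, 10 or 100 uM. JC-1 red fluorescence (mitochondrial integrity in cancer cells only) was read by plate reader every 8 h for 72 h. Values are normalised to each well's pre-drug value. The stock of one drug was tenfold lower, so its dose labels may be too high.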

CC(=O)c1c(C)c2cnc(Nc3ccc(N4CCNCC4)cn3)nc2n(C2CCCC2)c1=O [Palbociclib]
relative JC-1 red fluorescence
Conditions | 8 h | 16 h | 24 h | 32 h | 40 h | 48 h | 56 h | 64 h | 72 h
0.1 µM, coculture fibroblast: C12385 | 0.889 ± 0.011 | 0.826 ± 0.0089 | 0.785 ± 0.035 | 0.739 ± 0.04 | 0.701 ± 0.04 | 0.699 ± 0.028 | 0.657 ± 0.025 | 0.632 ± 0.013 | 0.628 ± 0.0013
0.1 µM, coculture fibroblast: H6013 | 0.89903 ± 0.00043 | 0.8285 ± 0.0037 | 0.802 ± 0.016 | 0.802 ± 0.018 | 0.788 ± 0.039 | 0.804 ± 0.044 | 0.777 ± 0.045 | 0.772 ± 0.057 | 0.72 ± 0.058
0.1 µM, coculture fibroblast: H6019 | 0.822 ± 0.011 | 0.836 ± 0.03 | 0.822 ± 0.025 | 0.78 ± 0.034 | 0.745 ± 0.017 | 0.74 ± 0.021 | 0.686 ± 0.024 | 0.656 ± 0.027 | 0.631 ± 0.032
0.1 µM, coculture fibroblast: H6076 | 0.958 ± 0.047 | 0.884 ± 0.058 | 0.927 ± 0.076 | 0.938 ± 0.061 | 0.87 ± 0.055 | 0.868 ± 0.062 | 0.828 ± 0.058 | 0.83 ± 0.047 | 0.888 ± 0.024
0.1 µM, coculture fibroblast: H6231 | 0.826 ± 0.035 | 0.88 ± 0.17 | 0.942 ± 0.047 | 0.88 ± 0.023 | 0.841 ± 0.0086 | 0.814 ± 0.013 | 0.744 ± 0.019 | 0.708 ± 0.015 | 0.6737 ± 0.0062
0.1 µM, coculture fibroblast: HADF | 0.8944 ± 0.0053 | 0.8202 ± 0.0012 | 0.776 ± 0.012 | 0.768 ± 0.014 | 0.708 ± 0.0091 | 0.709 ± 0.0082 | 0.676 ± 0.0064 | 0.6694 ± 0.0016 | 0.6335 ± 0.0016
0.1 µM, coculture fibroblast: HCFa | 0.879 ± 0.031 | 0.811 ± 0.024 | 0.753 ± 0.041 | 0.719 ± 0.04 | 0.641 ± 0.033 | 0.629 ± 0.035 | 0.573 ± 0.039 | 0.536 ± 0.043 | 0.497 ± 0.034
0.1 µM, coculture fibroblast: HCPF | 0.8779 ± 0.0061 | 0.991 ± 0.011 | 0.911 ± 0.014 | 0.899 ± 0.028 | 0.842 ± 0.027 | 0.806 ± 0.021 | 0.743 ± 0.032 | 0.714 ± 0.03 | 0.692 ± 0.022
0.1 µM, coculture fibroblast: HHSteC | 0.9014 ± 0.0069 | 0.848 ± 0.028 | 0.805 ± 0.029 | 0.773 ± 0.033 | 0.73 ± 0.047 | 0.732 ± 0.049 | 0.668 ± 0.052 | 0.647 ± 0.06 | 0.603 ± 0.059
0.1 µM, coculture fibroblast: HMF | 0.8495 ± 0.0034 | 0.936 ± 0.075 | 0.918 ± 0.069 | 0.879 ± 0.066 | 0.832 ± 0.087 | 0.81 ± 0.081 | 0.752 ± 0.072 | 0.721 ± 0.077 | 0.694 ± 0.079
0.1 µM, coculture fibroblast: HPFa | 0.914 ± 0.019 | 0.87 ± 0.03 | 0.82 ± 0.034 | 0.761 ± 0.033 | 0.701 ± 0.034 | 0.689 ± 0.048 | 0.621 ± 0.05 | 0.588 ± 0.053 | 0.52 ± 0.051
0.1 µM, coculture fibroblast: HUF | 0.9188 ± 0.0066 | 0.848 ± 0.023 | 0.799 ± 0.029 | 0.733 ± 0.022 | 0.684 ± 0.037 | 0.655 ± 0.036 | 0.606 ± 0.037 | 0.579 ± 0.044 | 0.555 ± 0.046
0.1 µM, coculture fibroblast: Hs5 | 0.786 ± 0.13 | 0.916 ± 0.089 | 0.964 ± 0.029 | 0.952 ± 0.039 | 0.869 ± 0.025 | 0.834 ± 0.021 | 0.791 ± 0.028 | 0.749 ± 0.027 | 0.768 ± 0.012
0.1 µM, coculture fibroblast: Hs27A | 0.866 ± 0.022 | 0.805 ± 0.0092 | 0.771 ± 0.0088 | 0.7793 ± 0.005 | 0.71 ± 0.0081 | 0.711 ± 0.011 | 0.657 ± 0.013 | 0.635 ± 0.022 | 0.587 ± 0.018
0.1 µM, coculture fibroblast: Hs343T | 0.9088 ± 0.0017 | 0.924 ± 0.098 | 0.936 ± 0.042 | 0.895 ± 0.021 | 0.822 ± 0.02 | 0.793 ± 0.015 | 0.7184 ± 0.0037 | 0.696 ± 0.0092 | 0.659 ± 0.025
0.1 µM, coculture fibroblast: WS1 | 0.8784 ± 0.0055 | 0.773 ± 0.018 | 0.718 ± 0.026 | 0.667 ± 0.017 | 0.611 ± 0.024 | 0.585 ± 0.014 | 0.564 ± 0.016 | 0.545 ± 0.015 | 0.538 ± 0.022
1 µM, coculture fibroblast: C12385 | 0.90499 ± 0.00021 | 0.8191 ± 0.005 | 0.831 ± 0.026 | 0.788 ± 0.022 | 0.743 ± 0.021 | 0.738 ± 0.021 | 0.696 ± 0.01 | 0.6793 ± 0.0015 | 0.6727 ± 0.0013
1 µM, coculture fibroblast: H6013 | 0.9216 ± 0.0081 | 0.8988 ± 0.0074 | 0.885 ± 0.024 | 0.901 ± 0.04 | 0.903 ± 0.055 | 0.927 ± 0.067 | 0.91 ± 0.073 | 0.918 ± 0.077 | 0.874 ± 0.086
1 µM, coculture fibroblast: H6019 | 0.8175 ± 0.0021 | 0.815 ± 0.042 | 0.785 ± 0.053 | 0.731 ± 0.047 | 0.698 ± 0.053 | 0.678 ± 0.051 | 0.638 ± 0.057 | 0.599 ± 0.046 | 0.57 ± 0.041
1 µM, coculture fibroblast: H6076 | 0.925 ± 0.028 | 0.879 ± 0.079 | 0.942 ± 0.051 | 0.946 ± 0.06 | 0.892 ± 0.043 | 0.88 ± 0.038 | 0.853 ± 0.042 | 0.842 ± 0.03 | 0.889 ± 0.053
1 µM, coculture fibroblast: H6231 | 0.842 ± 0.02 | 0.955 ± 0.033 | 0.863 ± 0.056 | 0.857 ± 0.065 | 0.814 ± 0.063 | 0.789 ± 0.07 | 0.726 ± 0.08 | 0.7 ± 0.072 | 0.673 ± 0.09
1 µM, coculture fibroblast: HADF | 0.9113 ± 0.001 | 0.869 ± 0.017 | 0.817 ± 0.019 | 0.8154 ± 0.0076 | 0.772 ± 0.008 | 0.7611 ± 0.0027 | 0.7281 ± 0.0049 | 0.724 ± 0.012 | 0.685 ± 0.0065
1 µM, coculture fibroblast: HCFa | 0.875 ± 0.034 | 0.858 ± 0.029 | 0.814 ± 0.037 | 0.793 ± 0.023 | 0.7406 ± 0.0059 | 0.7378 ± 0.0011 | 0.688 ± 0.013 | 0.65 ± 0.03 | 0.592 ± 0.022
1 µM, coculture fibroblast: HCPF | 0.8922 ± 0.0019 | 0.9443 ± 0.0063 | 0.882 ± 0.013 | 0.883 ± 0.01 | 0.829 ± 0.037 | 0.812 ± 0.043 | 0.76 ± 0.055 | 0.748 ± 0.052 | 0.733 ± 0.056
1 µM, coculture fibroblast: HHSteC | 0.94 ± 0.014 | 0.8946 ± 0.0063 | 0.864 ± 0.0058 | 0.842 ± 0.011 | 0.816 ± 0.0092 | 0.813 ± 0.02 | 0.764 ± 0.016 | 0.743 ± 0.025 | 0.691 ± 0.019
1 µM, coculture fibroblast: HMF | 0.862 ± 0.022 | 0.9359 ± 0.0083 | 0.881 ± 0.038 | 0.861 ± 0.058 | 0.799 ± 0.079 | 0.794 ± 0.087 | 0.754 ± 0.094 | 0.737 ± 0.11 | 0.725 ± 0.099
1 µM, coculture fibroblast: HPFa | 0.966 ± 0.022 | 0.9246 ± 0.008 | 0.884 ± 0.028 | 0.84 ± 0.038 | 0.804 ± 0.037 | 0.79 ± 0.025 | 0.732 ± 0.021 | 0.696 ± 0.023 | 0.618 ± 0.022
1 µM, coculture fibroblast: HUF | 0.9348 ± 0.002 | 0.831 ± 0.013 | 0.7922 ± 0.0035 | 0.73801 ± 0.00049 | 0.689 ± 0.013 | 0.658 ± 0.019 | 0.611 ± 0.027 | 0.585 ± 0.043 | 0.561 ± 0.043
1 µM, coculture fibroblast: Hs5 | 0.724 ± 0.023 | 0.95 ± 0.027 | 0.933 ± 0.031 | 0.927 ± 0.034 | 0.869 ± 0.037 | 0.844 ± 0.019 | 0.813 ± 0.0095 | 0.781 ± 0.021 | 0.804 ± 0.018
1 µM, coculture fibroblast: Hs27A | 0.8942 ± 0.0082 | 0.868 ± 0.012 | 0.8215 ± 0.0071 | 0.8366 ± 0.0063 | 0.772 ± 0.016 | 0.77 ± 0.019 | 0.723 ± 0.013 | 0.696 ± 0.017 | 0.641 ± 0.0078
1 µM, coculture fibroblast: Hs343T | 0.903 ± 0.024 | 0.9474 ± 0.0016 | 0.917 ± 0.02 | 0.91 ± 0.026 | 0.853 ± 0.034 | 0.835 ± 0.039 | 0.795 ± 0.035 | 0.785 ± 0.035 | 0.766 ± 0.035
1 µM, coculture fibroblast: WS1 | 0.896 ± 0.033 | 0.801 ± 0.025 | 0.751 ± 0.0099 | 0.695 ± 0.023 | 0.653 ± 0.029 | 0.625 ± 0.043 | 0.599 ± 0.033 | 0.574 ± 0.043 | 0.566 ± 0.053

From the supplement of paper PMC6078165
